Where two headings read alike, the source gives them in different places. No constants are given. Whether binding was seen depends on the method and setting. For part of these data: In cells and extracts the contact can be indirect. Some binding calls cover weakened binding; strength is not graded here. For part of these data: Tags and fused reporters may be left off the sequences shown.
Key:
[1] = biological target: AKT2 fused to a Venus half for BiFC (AKT2:Ct-Venus; AKT2:Nt-Venus) (Arabidopsis thaliana) (UniProt Q38898); assay: split reporter; split-Venus BiFC in Xenopus oocytes, confocal imaging
[2] = biological target: full-length AKT2 channel fused to the synthetic PLV transcription factor and the C-terminal domain of ubiquitin (PLV:Cub:AKT2) (Arabidopsis thaliana) (UniProt Q38898); assay: two-hybrid; split ubiquitin-based membrane yeast two-hybrid; PLV:Cub:AKT2 as bait, NubG fusion of MRH1 as prey; co-transformed yeast strain L40; X-Gal reporter on selective medium, 7 days at 30 °C
[3] = biological target: AKT2-eGFP fusion protein (Arabidopsis thaliana) (UniProt Q38898); assay: FRET or BRET; acceptor photobleaching FRET in Arabidopsis protoplasts; AKT2:eGFP donor, mRFP fusion acceptor
[4] = biological target: AKT2 fused to a Venus half for BiFC (AKT2:Ct-Venus; AKT2:Nt-Venus) (Arabidopsis thaliana) (UniProt Q38898); assay: split reporter; split-Venus BiFC in Xenopus oocytes, confocal imaging; remark: listed apart in the source
[5] = biological target: T1, MRH1 fused to a Venus half for BiFC (MRH1:Nt-Venus; MRH1:Ct-Venus) (Arabidopsis thaliana) (UniProt C0LGQ4); assay: as above
T1 sequence: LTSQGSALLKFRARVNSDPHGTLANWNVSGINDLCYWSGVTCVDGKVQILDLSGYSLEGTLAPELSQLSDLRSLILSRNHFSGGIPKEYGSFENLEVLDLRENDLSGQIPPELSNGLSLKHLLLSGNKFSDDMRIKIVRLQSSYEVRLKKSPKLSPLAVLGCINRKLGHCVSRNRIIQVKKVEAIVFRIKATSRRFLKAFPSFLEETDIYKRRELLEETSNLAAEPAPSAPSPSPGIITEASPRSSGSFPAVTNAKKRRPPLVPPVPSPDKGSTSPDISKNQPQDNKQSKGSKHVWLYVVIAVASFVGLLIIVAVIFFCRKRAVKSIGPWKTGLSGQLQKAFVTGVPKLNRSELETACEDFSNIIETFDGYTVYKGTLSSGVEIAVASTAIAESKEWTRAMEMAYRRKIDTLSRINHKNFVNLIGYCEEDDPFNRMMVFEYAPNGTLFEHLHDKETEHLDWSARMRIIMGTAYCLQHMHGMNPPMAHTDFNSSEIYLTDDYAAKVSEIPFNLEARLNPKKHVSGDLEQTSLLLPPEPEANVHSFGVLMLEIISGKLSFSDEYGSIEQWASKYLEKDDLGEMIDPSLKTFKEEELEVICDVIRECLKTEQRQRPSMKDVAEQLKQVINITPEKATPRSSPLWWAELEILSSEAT

Chains of the proteins cited; added tags and fusions are not shown.
UniProt Q38898: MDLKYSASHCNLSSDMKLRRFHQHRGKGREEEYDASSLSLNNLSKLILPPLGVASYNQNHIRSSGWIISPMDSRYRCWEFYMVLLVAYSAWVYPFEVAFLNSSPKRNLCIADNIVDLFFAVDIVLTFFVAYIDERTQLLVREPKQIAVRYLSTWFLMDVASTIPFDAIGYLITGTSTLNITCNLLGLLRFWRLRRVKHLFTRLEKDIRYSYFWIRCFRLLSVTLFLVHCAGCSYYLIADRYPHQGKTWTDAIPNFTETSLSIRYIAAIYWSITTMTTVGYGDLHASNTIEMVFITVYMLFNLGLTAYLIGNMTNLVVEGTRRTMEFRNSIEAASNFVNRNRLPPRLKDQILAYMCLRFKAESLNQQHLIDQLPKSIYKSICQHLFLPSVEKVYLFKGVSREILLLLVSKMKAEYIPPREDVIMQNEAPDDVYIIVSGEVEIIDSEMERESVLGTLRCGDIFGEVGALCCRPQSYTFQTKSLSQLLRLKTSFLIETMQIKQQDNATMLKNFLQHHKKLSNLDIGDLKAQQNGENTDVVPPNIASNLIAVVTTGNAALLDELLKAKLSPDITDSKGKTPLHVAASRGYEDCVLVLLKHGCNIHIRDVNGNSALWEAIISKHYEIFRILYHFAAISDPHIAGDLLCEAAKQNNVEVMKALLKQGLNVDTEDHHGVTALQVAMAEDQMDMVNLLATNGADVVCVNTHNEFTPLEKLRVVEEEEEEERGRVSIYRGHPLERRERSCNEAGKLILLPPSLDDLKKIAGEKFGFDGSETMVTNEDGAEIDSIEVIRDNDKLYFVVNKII

[6] = biological target: T1, MRH1 fused to a Venus half for BiFC (MRH1:Nt-Venus; MRH1:Ct-Venus) (Arabidopsis thaliana); assay: split reporter; BiFC, data not shown

In the case of “AKT2 fused to a Venus half for BiFC (AKT2:Ct-Venus; AKT2:Nt-Venus) (from UniProt Q38898 1-802)”, the binding [1] is reported as “binds”.

B1: full-length MRH1 kinase fused to the modified N-terminal domain of ubiquitin (NubG:MRH1) (protein, UniProt C0LGQ4 26-678)
chain: T1 sequence
B1 was tested, and the binding [2] was “binds”.

B2: MRH1-mRFP fusion protein (protein, UniProt C0LGQ4 26-678)
chain: T1 sequence
B2 was tested, and the binding [3] was “binds”.

B3: MRH1 fused to a Venus half for BiFC (MRH1:Nt-Venus; MRH1:Ct-Venus) (protein, UniProt C0LGQ4 26-678)
chain: T1 sequence
With B3 the binding [4] was “binds” and the binding [5] was “binds”.

B4: MRH2/MDIS1 (protein, UniProt C0LGU7 30-695)
chain: LESEGFVLLKFRARVDSDPHGTLANWNVSDHDHFCSWFGVTCVDNKVQMLNLSGCSLGGTLAPELSQLSELRSLILSKNKLSGDIPNEFASFAKLEFLDLRDNNLNGVVPPELNKVLTPENLLLSGNKFAGFMTVKFLRLQSLYKVQMNKNRELSSVSADVLDCVNRKLGYCVSRRSLITRNKAKAFVLRIRATSRHYMVRRESHGKNYVVNYHPSENETSIFKRRELLEETSNLAAMPAPDTPSPSPEIITIVFPRSSGSFPALTNAKKRIPPLIPPSSPPPLPTNNTIASDPPRKFEEKSKGFKDVWLYVVIGVAAFVAMLIIVAVIFFFRKRAVKSIGPWKTGLSGQLQKAFVTGVPKLNRSELETACEDFSNIIEAFDGYTVYKGTLSSGVEIAVASTAILETREWTRAMEMTYRRRIDTMSRVNHKNFINLIGYCEEDEPFNRMMVFEYAPNGTLFEHLHDKEMEHLDWNARTRIIMGTAYCLQYMHELNPPISHTKLVSSAIYLTDDYAAKVGEVPFSGQTGSKPRKPMSGDLDQSLLPLPPEPETNVYSFGVLMLEIISGKLSDSEEEGSILKWASKYLENDNLRDMIDPTLTTYKEEELEAICDVARHCLKLDESQRPKMKYVVQQLKEVINISQEQATPRLSPLWWAELEILSSEAT
With B4 the binding [6] was “binds”.
